One compound from paper PMC6835155, “Lessons from LIMK1 enzymology and their impact on inhibitor design” (Biochemical Journal, 2019) can be followed below.

The chains behind the UniProt entries cited, without tags or fusion partners. Residues count along the entry.
UniProt P53667, 330-637: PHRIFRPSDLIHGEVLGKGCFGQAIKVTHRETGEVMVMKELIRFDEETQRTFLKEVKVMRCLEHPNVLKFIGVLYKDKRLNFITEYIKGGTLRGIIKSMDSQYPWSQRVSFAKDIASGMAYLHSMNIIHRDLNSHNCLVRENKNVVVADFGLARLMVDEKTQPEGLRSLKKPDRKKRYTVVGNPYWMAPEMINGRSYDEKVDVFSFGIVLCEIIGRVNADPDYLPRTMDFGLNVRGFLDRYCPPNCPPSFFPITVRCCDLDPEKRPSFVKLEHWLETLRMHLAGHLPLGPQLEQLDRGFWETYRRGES
UniProt P53671, 330-632: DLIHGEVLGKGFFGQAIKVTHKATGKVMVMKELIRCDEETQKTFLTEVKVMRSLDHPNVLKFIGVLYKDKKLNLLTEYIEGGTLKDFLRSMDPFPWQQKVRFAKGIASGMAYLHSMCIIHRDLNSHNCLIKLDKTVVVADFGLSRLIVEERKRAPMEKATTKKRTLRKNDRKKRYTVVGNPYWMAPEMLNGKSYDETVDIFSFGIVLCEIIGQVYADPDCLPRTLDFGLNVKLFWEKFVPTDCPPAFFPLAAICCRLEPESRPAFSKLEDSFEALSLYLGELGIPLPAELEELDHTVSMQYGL

Experiment [1] deals with T1, LIMK1KD (Homo sapiens, UniProt P53667).
T1 construct: His6 (N, cleaved yes); made in house; host or cells: baculovirus; Sf9 for virus, TriEx insect cells for expression
Kind of experiment: Differential (dynamic) scanning fluorimetry (DSF) assay, LIMK1KD. The class given is binding. The settings on record: 2 µM LIMK1KD, compound 10 µM, single shot.

Experiment [2] has as its target T2, LIMK2KD (Homo sapiens, UniProt P53671).
T2 construct: The cDNA coding for LIMK2 residues 330 to 632 was PCR amplified; His6 (N, cleaved yes); made in house; host or cells: baculovirus; Sf9 for virus, TriEx insect cells for expression
Nature of the experiment: Differential (dynamic) scanning fluorimetry (DSF) assay, LIMK2KD. In kind it is binding. To be noted: compound 10 µM, single shot.

Regarding `CC(C)n1nc(-c2cc3cc(O)ccc3[nH]2)c2c(N)ncnc21` [PP242], in experiment [1], the “TM Shift LIMK1 (K)” value is recorded as 2.0 K. Besides, in experiment [2], the “TM Shift LIMK2 (K)” value was found to be 3.7 K.
